No constants are given. Whether binding was seen depends on the method and setting. In cells and extracts the contact can be indirect. A yes stands for co-enrichment or nearness to the bait. Other partners may have been found. For some of these results: Tags and fused reporters may be left off the sequences shown.
B1: TBC1D15 (protein, UniProt Q8TC07 1-691)
chain: MAAAGVVSGKIIYEQEGVYIHSSCGKTNDQDGLISGILRVLEKDAEVIVDWRPLDDALDSSSILYARKDSSSVVEWTQAPKERGHRGSEHLNSYEAEWDMVNTVSFKRKPHTNGDAPSHRNGKSKWSFLFSLTDLKSIKQNKEGMGWSYLVFCLKDDVVLPALHFHQGDSKLLIESLEKYVVLCESPQDKRTLLVNCQNKSLSQSFENLLDEPAYGLIQAGLLDRRKLLWAIHHWKKIKKDPYTATMIGFSKVTNYIFDSLRGSDPSTHQRPPSEMADFLSDAIPGLKINQQEEPGFEVITRIDLGERPVVQRREPVSLEEWTKNIDSEGRILNVDNMKQMIFRGGLSHALRKQAWKFLLGYFPWDSTKEERTQLQKQKTDEYFRMKLQWKSISQEQEKRNSRLRDYRSLIEKDVNRTDRTNKFYEGQDNPGLILLHDILMTYCMYDFDLGYVQGMSDLLSPLLYVMENEVDAFWCFASYMDQMHQNFEEQMQGMKTQLIQLSTLLRLLDSGFCSYLESQDSGYLYFCFRWLLIRFKREFSFLDILRLWEVMWTELPCTNFHLLLCCAILESEKQQIMEKHYGFNEILKHINELSMKIDVEDILCKAEAISLQMVKCKELPQAVCEILGLQGSEVTTPDSDVGEDENVVMTPCPTSAFQSNALPTLSASGARNDSPTQIPVSSDVCRLTPA
B2: SMCR8 (protein, UniProt Q8TEV9 1-937)
chain: MISAPDVVAFTKEEEYEEEPYNEPALPEEYSVPLFPFASQGANPWSKLSGAKFSRDFILISEFSEQVGPQPLLTIPNDTKVFGTFDLNYFSLRIMSVDYQASFVGHPPGSAYPKLNFVEDSKVVLGDSKEGAFAYVHHLTLYDLEARGFVRPFCMAYISADQHKIMQQFQELSAEFSRASECLKTGNRKAFAGELEKKLKDLDYTRTVLHTETEIQKKANDKGFYSSQAIEKANELASVEKSIIEHQDLLKQIRSYPHRKLKGHDLCPGEMEHIQDQASQASTTSNPDESADTDLYTCRPAYTPKLIKAKSTKCFDKKLKTLEELCDTEYFTQTLAQLSHIEHMFRGDLCYLLTSQIDRALLKQQHITNFLFEDFVEVDDRMVEKQESIPSKPSQDRPPSSSLEECPIPKVLISVGSYKSSVESVLIKMEQELGDEEYKEVEVTELSSFDPQENLDYLDMDMKGSISSGESIEVLGTEKSTSVLSKSDSQASLTVPLSPQVVRSKAVSHRTISEDSIEVLSTCPSEALIPDDFKASYPSAINEEESYPDGNEGAIRFQASISPPELGETEEGSIENTPSQIDSSCCIGKESDGQLVLPSTPAHTHSDEDGVVSSPPQRHRQKDQGFRVDFSVENANPSSRDNSCEGFPAYELDPSHLLASRDISKTSLDNYSDTTSYVSSVASTSSDRIPSAYPAGLSSDRHKKRAGQNALKFIRQYPFAHPAIYSLLSGRTLVVLGEDEAIVRKLVTALAIFVPSYGCYAKPVKHWASSPLHIMDFQKWKLIGLQRVASPAGAGTLHALSRYSRYTSILDLDNKTLRCPLYRGTLVPRLADHRTQIKRGSTYYLHVQSMLTQLCSKAFLYTFCHHLHLPTHDKETEELVASRQMSFLKLTLGLVNEDVRVVQYLAELLKLHYMQESPGTSHPMLRFDYVPSFLYKI
B3: ARHGAP12 (protein, UniProt Q8IWW6 1-846)
chain: MKMADRSGKIIPGQVYIEVEYDYEYEAKDRKIVIKQGERYILVKKTNDDWWQVKPDENSKAFYVPAQYVKEVTRKALMPPVKQVAGLPNNSTKIMQSLHLQRSTENVNKLPELSSFGKPSSSVQGTGLIRDANQNFGPSYNQGQTVNLSLDLTHNNGKFNNDSHSPKVSSQNRTRSFGHFPGPEFLDVEKTSFSQEQSCDSAGEGSERIHQDSESGDELSSSSTEQIRATTPPNQGRPDSPVYANLQELKISQSALPPLPGSPAIQINGEWETHKDSSGRCYYYNRGTQERTWKPPRWTRDASISKGDFQNPGDQELLSSEENYYSTSYSQSDSQCGSPPRGWSEELDERGHTLYTSDYTNEKWLKHVDDQGRQYYYSADGSRSEWELPKYNASSQQQREIIKSRSLDRRLQEPIVLTKWRHSTIVLDTNDKESPTASKPCFPENESSPSSPKHQDTASSPKDQEKYGLLNVTKIAENGKKVRKNWLSSWAVLQGSSLLFTKTQGSSTSWFGSNQSKPEFTVDLKGATIEMASKDKSSKKNVFELKTRQGTELLIQSDNDTVINDWFKVLSSTINNQAVETDEGIEEEIPDSPGIEKHDKEKEQKDPKKLRSFKVSSIDSSEQKKTKKNLKKFLTRRPTLQAVREKGYIKDQVFGSNLANLCQRENGTVPKFVKLCIEHVEEHGLDIDGIYRVSGNLAVIQKLRFAVNHDEKLDLNDSKWEDIHVITGALKMFFRELPEPLFTFNHFNDFVNAIKQEPRQRVAAVKDLIRQLPKPNQDTMQILFRHLRRVIENGEKNRMTYQSIAIVFGPTLLKPEKETGNIAVHTVYQNQIVELILLELSSIFGR
B4: VPS33B (protein, UniProt Q9H267 1-617)
chain: MAFPHRPDAPELPDFSMLKRLARDQLIYLLEQLPGKKDLFIEADLMSPLDRIANVSILKQHEVDKLYKVENKPALSSNEQLCFLVRPRIKNMRYIASLVNADKLAGRTRKYKVIFSPQKFYACEMVLEEEGIYGDVSCDEWAFSLLPLDVDLLSMELPEFFRDYFLEGDQRWINTVAQALHLLSTLYGPFPNCYGIGRCAKMAYELWRNLEEEEDGETKGRRPEIGHIFLLDRDVDFVTALCSQVVYEGLVDDTFRIKCGSVDFGPEVTSSDKSLKVLLNAEDKVFNEIRNEHFSNVFGFLSQKARNLQAQYDRRRGMDIKQMKNFVSQELKGLKQEHRLLSLHIGACESIMKKKTKQDFQELIKTEHALLEGFNIRESTSYIEEHIDRQVSPIESLRLMCLLSITENGLIPKDYRSLKTQYLQSYGPEHLLTFSNLRRAGLLTEQAPGDTLTAVESKVSKLVTDKAAGKITDAFSSLAKRSNFRAISKKLNLIPRVDGEYDLKVPRDMAYVFGGAYVPLSCRIIEQVLERRSWQGLDEVVRLLNCSDFAFTDMTKEDKASSESLRLILVVFLGGCTFSEISALRFLGREKGYRFIFLTTAVTNSARLMEAMSEVKA
B5: ARHGAP18 (protein, UniProt Q8N392 1-663)
chain: MSWLSSSQGVVLTAYHPSGKDQTVGNSHAKAGEEATSSRRYGQYTMNQESTTIKVMEKPPFDRSISQDSLDELSMEDYWIELENIKKSSENSQEDQEVVVVKEPDEGELEEEWLKEAGLSNLFGESAGDPQESIVFLSTLTRTQAAAVQKRVETVSQTLRKKNKQYQIPDVRDIFAQQRESKETAPGGTESQSLRTNENKYQGRDDEASNLVGEEKLIPPEETPAPETDINLEVSFAEQALNQKESSKEKIQKSKGDDATLPSFRLPKDKTGTTRIGDLAPQDMKKVCHLALIELTALYDVLGIELKQQKAVKIKTKDSGLFCVPLTALLEQDQRKVPGMRIPLIFQKLISRIEERGLETEGLLRIPGAAIRIKNLCQELEAKFYEGTFNWESVKQHDAASLLKLFIRELPQPLLSVEYLKAFQAVQNLPTKKQQLQALNLLVILLPDANRDTLKALLEFLQRVIDNKEKNKMTVMNVAMVMAPNLFMCHALGLKSSEQREFVMAAGTANTMHLLIKYQKLLWTIPKFIVNQVRKQNTENHKKDKRAMKKLLKKMAYDREKYEKQDKSTNDADVPQGVIRVQAPHLSKVSMAIQLTEELKASDVLARFLSQESGVAQTLKKGEVFLYEIGGNIGERCLDDDTYMKDLYQLNPNAEWVIKSKPL
B6: VPS45 (protein, UniProt Q9NRW7 1-570)
chain: MNVVFAVKQYISKMIEDSGPGMKVLLMDKETTGIVSMVYTQSEILQKEVYLFERIDSQNREIMKHLKAICFLRPTKENVDYIIQELRRPKYTIYFIYFSNVISKSDVKSLAEADEQEVVAEVQEFYGDYIAVNPHLFSLNILGCCQGRNWDPAQLSRTTQGLTALLLSLKKCPMIRYQLSSEAAKRLAECVKQVITKEYELFEFRRTEVPPLLLILDRCDDAITPLLNQWTYQAMVHELLGINNNRIDLSRVPGISKDLREVVLSAENDEFYANNMYLNFAEIGSNIKNLMEDFQKKKPKEQQKLESIADMKAFVENYPQFKKMSGTVSKHVTVVGELSRLVSERNLLEVSEVEQELACQNDHSSALQNIKRLLQNPKVTEFDAARLVMLYALHYERHSSNSLPGLMMDLRNKGVSEKYRKLVSAVVEYGGKRVRGSDLFSPKDAVAITKQFLKGLKGVENVYTQHQPFLHETLDHLIKGRLKENLYPYLGPSTLRDRPQDIIVFVIGGATYEEALTVYNLNRTTPGVRIVLGGTTVHNTKSFLEEVLASGLHSRSKESSQVTSRSASRR
B7: RABEP1 (protein, UniProt Q15276 1-862)
chain: MAQPGPASQPDVSLQQRVAELEKINAEFLRAQQQLEQEFNQKRAKFKELYLAKEEDLKRQNAVLQAAQDDLGHLRTQLWEAQAEMENIKAIATVSENTKQEAIDEVKRQWREEVASLQAVMKETVRDYEHQFHLRLEQERTQWAQYRESAEREIADLRRRLSEGQEEENLENEMKKAQEDAEKLRSVVMPMEKEIAALKDKLTEAEDKIKELEASKVKELNHYLEAEKSCRTDLEMYVAVLNTQKSVLQEDAEKLRKELHEVCHLLEQERQQHNQLKHTWQKANDQFLESQRLLMRDMQRMEIVLTSEQLRQVEELKKKDQEDDEQQRLNKRKDHKKADVEEEIKIPVVCALTQEESSAQLSNEEEHLDSTRGSVHSLDAGLLLPSGDPFSKSDNDMFKDGLRRAQSTDSLGTSGSLQSKALGYNYKAKSAGNLDESDFGPLVGADSVSENFDTASLGSLQMPSGFMLTKDQERAIKAMTPEQEETASLLSSVTQGMESAYVSPSGYRLVSETEWNLLQKEVHNAGNKLGRRCDMCSNYEKQLQGIQIQEAETRDQVKKLQLMLRQANDQLEKTMKDKQELEDFIKQSSEDSSHQISALVLRAQASEILLEELQQGLSQAKRDVQEQMAVLMQSREQVSEELVRLQKDNDSLQGKHSLHVSLQQAEDFILPDTTEALRELVLKYREDIINVRTAADHVEEKLKAEILFLKEQIQAEQCLKENLEETLQLEIENCKEEIASISSLKAELERIKVEKGQLESTLREKSQQLESLQEIKISLEEQLKKETAAKATVEQLMFEEKNKAQRLQTELDVSEQVQRDFVKLSQTLQVQLERIRQADSLERIRAILNDTKLTDINQLPET

The chains behind the UniProt entries cited, without tags or fusion partners.
UniProt P62491: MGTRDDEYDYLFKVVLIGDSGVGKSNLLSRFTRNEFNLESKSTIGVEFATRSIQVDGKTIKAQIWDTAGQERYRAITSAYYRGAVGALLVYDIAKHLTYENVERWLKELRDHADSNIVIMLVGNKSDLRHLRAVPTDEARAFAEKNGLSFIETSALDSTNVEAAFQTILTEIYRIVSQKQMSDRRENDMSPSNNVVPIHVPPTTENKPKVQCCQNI

The binders below were run against T1, mycBirA*–Rab25 (UniProt P57735) (assay: proximity labelling; BioID: A2780 cells stably expressing mycBirA*-Rab baits (mycBirA* alone as control), 1 uM biotin for 16 h; lysis in 0.4% SDS, 500 mM NaCl buffer; streptavidin microspheres; LC-MS/MS with label-free quantification, four replicates; high-confidence list by SAINTexpress (BFDR<=0.05), longlist by >2-fold enrichment; biotin-modified peptides also scored).
T1 sequence: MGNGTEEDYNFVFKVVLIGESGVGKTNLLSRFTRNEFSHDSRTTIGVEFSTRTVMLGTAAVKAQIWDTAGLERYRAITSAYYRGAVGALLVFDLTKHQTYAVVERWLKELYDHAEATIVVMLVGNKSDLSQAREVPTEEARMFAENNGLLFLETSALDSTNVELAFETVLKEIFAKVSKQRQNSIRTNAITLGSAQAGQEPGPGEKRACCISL

binding, binds:
B1
B2
B3

The binders below were run against mycBirA*–Rab11a (UniProt P62491) in the same assay as above.

binding, binds:
B4
B5
B6
B7

— publication PMC10323252
